Reference: PubChem BioAssay AID2685 (National Center for Advancing Translational Sciences (NCATS), 2010)
In all, about 320,000 compounds went through this assay and about 2,100 (0.66%) were called active. Inconclusive means that the source gave no clear call. Such entries were picked first, then a sample of the others. The call rests on the fitted dose curve; in most records, active means well fitted inhibition curve with a large enough effect in the signal ratio, with a control signal flat (not every such curve was filed as active); inconclusive means small, poorly fitted or top-dose-only effect, or effect the other way, or a change in a side signal; inactive means flat fitted curve, though single readings scatter; the % refers to the signal ratio. A potency beside an inconclusive call is a rough fit, not a confirmed value.

Assay: qHTS Assay for Lipid Storage Modulators in Drosophila S3 Cells
Settings: BODIPY lipid droplet fluorescence, 18-24 h, cells fed with added oleic acid; lipid storage change, negative = inhibition: at 46.1 µM (top of the series) unless noted
Method in brief: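 Drosophila S3 cells loaded with oleic acid (400 uM, as added) and compounds at several concentrations; lipid droplets imaged by 488-nm laser-scanning cytometry, 500–530 nm intensity and object ratio to cell channel. Percent activity normalized to 20 uM Triacsin C.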
On the % scale 0 is the no-effect control and ±100 the full control effect; potency means the concentration at half of the fitted maximal effect.

Row | SMILES | Potency | lipid storage change, negative = inhibition
1 | C[C@H](NC(=O)[C@@H]1CSC2c3ccccc3C(=O)N21)C(=O)NCCc1ccc(F)cc1 (stereo partly specified) | inconclusive: 29.1 µM [activator, single point] | 
2 | COc1ccc(-c2cc(C(F)(F)F)c(C#N)c(SCC(=O)Nc3nc(C)co3)n2)cc1 | inconclusive: 18.4 µM [falling, single point] | 
3 | Nc1nnc(CSCc2ccc(Cl)cc2Cl)s1 |  | inconclusive: 1.63%
4 | COC(=O)C1CCN(C(=O)NC2CCCCC2)CC1 |  | inconclusive: 2.76%
5 | CN(CC(=O)Nc1ccc(OC(F)(F)F)cc1)C(=O)C1CCC1 |  | inconclusive: -10.8%
6 | O=C(CCN1CCN(CCO)CC1)Nc1ccc(C2CCCC2)cc1 |  | inconclusive: 8.16%
7 | COc1cccc(COC(=O)c2ccc3c(c2)NC(=O)C(C)S3)c1OC (stereo unspecified) | active: 3.26 µM | 
8 | CCn1c(SCC(=O)Nc2ccccc2OC)nnc1-c1cnccn1 |  | inconclusive: 27.9%
9 | CC1(C)CC(=O)c2cc(NC(=O)c3ccccc3)c(=O)oc2C1 |  | inactive: 3.26%
10 | CCN(CC)c1ccc(NC(=S)NC(=O)c2cccs2)cc1 | inconclusive: 16.4 µM [falling, single point] | 
11 | CC1(c2ccc3ccccc3c2)NC(=O)N(CC(=O)NCc2cccs2)C1=O (stereo unspecified) | inconclusive: 18.4 µM [activator, partial curve] | 
12 | Cc1ccc(S(N)(=O)=O)cc1 | inconclusive: 1.16 µM [activator, single point] | 
13 | CC(=O)c1ccc(N2CCN(C(=O)c3ccc4ccccc4n3)CC2)cc1 |  | inconclusive: -2.73%
14 | COc1ccc(N(CC(C)C)S(=O)(=O)c2nnc(NC(=O)c3ccco3)s2)cc1 |  | inconclusive: -52.8%
15 | COc1ccccc1CNC(=O)CN(C)S(=O)(=O)c1ccc(F)cc1 |  | inconclusive: 3.88%
16 | Cc1[nH]c2ccccc2c1/C=C/C(=O)c1ccccc1 | inconclusive: 20.6 µM [falling, single point] | 
17 | CCOC(=O)N1CCN(Cc2nc3cc([N+](=O)[O-])ccc3n2CC)CC1 |  | inconclusive: 41.8%
18 | Cc1noc(C)c1COc1ccccc1C(=O)N(C)Cc1ccc(C(C)(C)C)cc1 | inconclusive: 25.9 µM [falling, single point] | 
19 | COc1ccc(C(=O)N/N=C2/SCC(=O)N2Cc2ccc3c(c2)OCO3)cc1OC | inconclusive: 5.17 µM [falling, full curve] | 
20 | Cc1nn(Cc2ccc(Cl)cc2Cl)c(Cl)c1/C=C/C(=O)OCC(=O)NCC(F)(F)F | inconclusive: 4.61 µM [activator, partial curve] | 
21 | C=CCn1c(SCC(=O)Nc2cc(C)on2)nc2sc(CC)cc2c1=O | inconclusive: 8.2 µM [activator, partial curve] | 
22 | Cc1ccc(N(C(=O)c2csnn2)C(C(=O)NC2CCCCC2)c2ccccn2)cc1C (stereo unspecified) |  | inconclusive: 74.8%
23 | COc1ccccc1NC(=S)N(Cc1ccco1)Cc1cc2cccc(C)c2[nH]c1=O | inconclusive: 0.366 µM [activator, full curve, poor fit] | 
24 | O=C(c1ccccn1)c1conc1C(=O)c1ccc(Br)cc1 |  | inconclusive: -44.5%
25 | CCc1cc(=O)oc2cc3oc(C)c(C)c3cc12 |  | inconclusive: 17.7%
26 | COCCn1c(=O)[nH]c2cc(C(=O)Nc3cc(C)cc(C)c3)ccc2c1=O |  | inconclusive: -32.8%

Quoted from the listing.
In lipid storage change, negative = inhibition, CC(=O)c1ccc(N2CCN(C(=O)c3ccc4ccccc4n3)CC2)cc1 is entered as inconclusive: -2.73%
In Potency, Cc1nn(Cc2ccc(Cl)cc2Cl)c(Cl)c1/C=C/C(=O)OCC(=O)NCC(F)(F)F is entered as inconclusive: 4.61 µM [activator, partial curve]

Carrying on:

Row | SMILES | Potency | lipid storage change, negative = inhibition
27 | Cc1cc(C(F)(F)F)nn1CC(=O)N1CCOCC1 |  | inconclusive: -161%
28 | CCCCNC(=S)NNC(=O)c1csc(C)c1C | inconclusive: 4.11 µM [activator, partial curve, poor fit] | 
29 | CCN1CCc2c(sc(NC(=O)c3ccc(S(=O)(=O)N4CC(C)OC(C)C4)cc3)c2C(N)=O)C1 (stereo unspecified) |  | inconclusive: -91.5%
30 | COc1ccc(OC)c(C2=NOC(C(=O)NCc3ccccn3)C2)c1 (stereo unspecified) |  | inconclusive: 0.134%
31 | CCN(CC)C(=O)C1CCCN(c2ccc([N+](=O)[O-])cc2/C=N/NC(=O)c2ccc([N+](=O)[O-])cc2)C1 (stereo unspecified) | inconclusive: 2.91 µM [activator, partial curve] | 
32 | CC(C)(C)CC(=O)Nc1nnc(CCc2ccccc2)s1 | inconclusive: 23.1 µM [activator, partial curve] | 
33 | CC1CCN(S(=O)(=O)c2ccc3ncn(CC(=O)N4CCN(C)CC4)c(=O)c3c2)CC1 |  | inconclusive: -7.03%
34 | Cc1noc(C)c1C(=O)OCC(=O)c1cc(C)n(Cc2ccccc2Cl)c1C | inconclusive: 0.082 µM [activator, full curve, poor fit] | 
35 | Cc1ccc(S(=O)(=O)N2CC(O)C[C@H]2C(=O)OCC(=O)Nc2ccc(N3CCOCC3)cc2)cc1C (stereo partly specified) |  | inconclusive
36 | CCCNC(=S)N1CCN(Cc2ccc3c(c2)OCO3)CC1 |  | inconclusive: 16.7%
37 | CC(=O)NCC(=O)NC1CC(C)(C)Cc2c1cnn2-c1ccccc1 (stereo unspecified) |  | inconclusive: -33.8%
38 | O=c1[nH]c2c(c(=O)[nH]1)CCC2 |  | inconclusive: -56.8%
39 | Cc1cc(C)nc(CCNC(=O)c2cc(COc3ccc(F)cc3Cl)on2)n1 |  | inconclusive: 29.3%
40 | COc1cc(-c2cc3nc(C)c(C)c(=O)n3[nH]2)cc(OC)c1OC | inconclusive: 6.51 µM [activator, single point] | 
41 | CC(Sc1nncn1C)C(=O)Nc1cc(C(F)(F)F)ccc1N1CCOCC1 (stereo unspecified) |  | inconclusive: -14.8%
42 | Cc1nc(SCc2ccccc2)nc2c1CCC2 | inconclusive: 6.51 µM [falling, single point] | 
43 | Cc1ccc(C)c(NC(=O)COC(=O)CNC(=O)c2ccccc2Cl)c1 |  | inconclusive: -47% [cytotoxic] [at 0.00295 µM]
44 | COc1ccccc1CC(=O)NNC(=O)c1ccco1 |  | inconclusive: 83.2%
45 | CN(C)C(CNC(=O)c1cccc(S(=O)(=O)N2CC3(C)CC2CC(C)(C)C3)c1)c1ccco1 (stereo unspecified) |  | inconclusive: -3.73%
46 | CCSc1nnc(NC(=O)c2ccccc2)s1 |  | inconclusive: 8.17%
47 | COc1ccc(C(=O)OCc2c(C)noc2C)cc1 |  | inconclusive: 70%
48 | Cc1cc(C)c(S(C)(=O)=O)c(N(C)N)n1 |  | inconclusive: -37.9%
49 | COc1cccc(N2CCN(C3CC(=O)N(c4ccc(C)c(Cl)c4)C3=O)CC2)c1 (stereo unspecified) |  | inconclusive: 51.8%
50 | Cc1cc(C)c(C#N)c(SCc2cn3ccccc3n2)n1 | inconclusive: 16.4 µM [activator, partial curve] | 
51 | COc1ccccc1NC(=O)CCCc1c[nH]c2ccccc12 |  | inconclusive: 20.5%
52 | O=C(NN=C1CCCC1)c1cc(O)cc(O)c1 |  | inconclusive: 51.4%

Row | SMILES | Potency | lipid storage change, negative = inhibition
53 | Cc1ccc(NC(=O)c2ccc(C(C)(C)C)cc2)cc1[N+](=O)[O-] |  | inconclusive: -113%
54 | CCN1C(=O)/C(=C2/Sc3ccccc3N2CC)SC1=S | inconclusive: 10.3 µM [falling, partial curve, poor fit] | 
55 | COc1ccc(/C=N\n2nnc3ccccc32)cc1 | inconclusive: 1.84 µM [activator, full curve] | 
56 | COc1ccccc1NC(=O)CSc1nc(O)cc(=O)n1C |  | inconclusive: 65.3%
57 | O=C(O)c1cn(-c2ccc(F)cc2)c2cc(Cl)c(F)cc2c1=O | inconclusive: 5.8 µM [activator, full curve] | 
58 | O=C(NCCc1ccc(C(F)(F)F)cc1)c1ccc(Cl)nc1 | inconclusive: 0.651 µM [falling, single point] | 
59 | COc1ccc(C(=O)Nc2ccc(N3CCC(C)CC3)cc2)cc1Br |  | inconclusive: 48.5%
60 | COc1cccc(OC)c1C(=O)NC(=S)Nc1cccc(NC(=O)c2ccco2)c1 |  | inconclusive: 16.7%
61 | CC1CC(C)CN(C(=O)/C(=C\c2ccccc2)c2ccccc2)C1 (stereo unspecified) |  | inconclusive: -13.4%
62 | O=C(NCc1ccccc1)C(c1cccnc1)N(C(=O)c1csnn1)c1ccccc1 (stereo unspecified) |  | inconclusive: 46.5%
63 | CCOC(=O)CN1C(=O)C(O)=C(C(C)=O)C1c1ccc(F)cc1 (stereo unspecified) |  | inconclusive: -3.37%
64 | Oc1c(C(c2ccccn2)N2CCOCC2)ccc2cccnc12 (stereo unspecified) |  | inconclusive: -16.2%
65 | CCN(CC)S(=O)(=O)c1ccc(N/N=C(\C)c2ccncc2)c([N+](=O)[O-])c1 |  | inconclusive: -180%
66 | CC(c1nnc(SCC(=O)c2c(N)n(C)c(=O)n(C)c2=O)n1-c1ccc(Cl)cc1)N(C)C (stereo unspecified) |  | inconclusive: 6.2%
67 | Cc1nnc(SCC(=O)c2cc(C)n(C3CC3)c2C)s1 | inconclusive: 29.1 µM [falling, single point] | 
68 | N#Cc1cccc(C(c2nnnn2Cc2ccccc2)N2CCCC2)c1 (stereo unspecified) |  | inconclusive: -5.63%
69 | CC(C)(C)OC(=O)N1CCC(NC(=O)c2[nH]cnc2C(=O)Nc2ccc(Cl)cc2)CC1 |  | inconclusive: 10.2%
70 | O=C(Cn1c(=O)c2cccn2c2cccnc21)NCCCN1CCN(c2ccc(F)cc2)CC1 |  | inconclusive: 108%
71 | CC(C)OCCCn1c(=NC(=O)c2ccncc2)c(C#N)cc2c(=O)n3ccccc3nc21 |  | inconclusive: -0.666%
72 | COc1ccc(NC(=S)NC2CCCCCC2)c(OC)c1 |  | inconclusive: -53.5%
73 | COc1ccc(/C=C/C(=O)NC2CCN(Cc3ccccc3)CC2)cc1OC | inconclusive: 18.4 µM [activator, partial curve] | 
74 | COc1cc(/C=N/NC(=O)CC2(C)OCCCO2)ccc1OCc1ccc(Cl)cc1Cl | inconclusive: 0.0116 µM [activator, full curve, poor fit] | 
75 | C/C(=N\NC(=O)c1ccc(OC2CCCC2)cc1)c1ccc(O)cc1 |  | inconclusive: 45.2%
76 | Cn1cccc1Cc1nnc(SCC(=O)NCCc2ccccc2)n1C |  | inconclusive: -18.2%
